# Experimental data as given in PubChem BioAssay AID1347423 (Functional Genomics Laboratory (NCATS/FGL), 2020).
# Out of some 52,000 sequences screened, about 210 (0.4%) were called active.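 Rule for the calls: active = gene whose silencing raises cell survival under the drug, median off-target-corrected z-score across its silencing RNAs 2 or more; inactive = the rest.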 This is one part of the list.
# Assay: Resistance to Poly (ADP-Ribose) Polymerase inhibitor: Gene Identification via Genome-wide siRNA Screen
# Settings: mouse BRCA2 R2336H ES cells, olaparib, CellTiter-Glo viability; active compounds read high
# Outline: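 Mouse BRCA2 R2336H ES cells were reverse-transfected with siRNA (20 nM final), treated at 48 h with 500 nM olaparib, and read by CellTiter-Glo after 72 h. Scores: MAD-based z per siRNA, median per gene, seed off-target correction.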
row,Sequence,z-score
1,GAUAACAAGCAUCUCAUGUTT against Krtap16-8,inactive: 1.57
2,GGGAAAAGUGGUAAAUUAUTT against Shprh,inactive: -0.825
3,GGUGAUCCUUCUUUUUUACTT against Sgol1,inactive: -2.31
4,GGCUAUUUUGGCUUGUAAATT against Jam2,inactive: 0.291
5,GACAAAGCCUAGAAUCAAUTT against Olfr402,inactive: -1.43
6,GCACUUUGUAUAUCUUUCCTT against Btd,inactive: 0.981
7,CGGCAAGUUUAAGAAGGACTT against Uqcr,inactive: 0.403
8,CCACAAAUGAGAACUUCCCTT against D4Ertd22e,inactive: 0.683
9,GGAACUCUCAAGAGAGAAUTT against 5730551F12Rik,inactive: 0.885
10,GGAAGCAACUUGGAAUUUGTT against Catna3,inactive: -0.074
11,GGAAGAAGUGGAUGCUGGATT against AV273951,inactive: 0.444
12,GGUACCAGACCUCAUAGUUTT against 4732496G21Rik,inactive: -0.169
13,CGCACAUGUAGUUAAUAAATT against 2400003L07Rik,inactive: 1.18
14,CCCAGAAGAGGUUACAUUUTT against Cd200r4,inactive: -0.745
15,GGGCUAUGAACCUGAAGAGTT against 4121402D02Rik,inactive: -2.29
16,AUCUGUUCCGGAGGAAUUUTT against 1700029I15Rik,inactive: -0.265
17,CCUACUUGGACAUGAACCGTT against Vps18,inactive: 0.553
18,GGCUAGCAGUUCAGUGGAATT against Pex11a,inactive: -0.831
19,GGUGUAUCGGAACAGUGAGTT against 2610034H20Rik,inactive: -2.04
20,CGGUAUCAAGUGGUACUACTT against Angpt2,inactive: 0.565
21,GGUAUAAGAAGAGAAUCCUTT against 1700128F08Rik,inactive: 0.648
22,GGAAACUGGUGCUACAUUATT against Usp10,inactive: 0.171
23,CCAUGAGCACCUACUAUGCTT against C330014O21Rik,inactive: -0.0142
24,GGUCAUGGAUGUGCACGAUTT against Krt1-14,inactive: 1.55
25,CCUAGAACUUAAAUGGACATT against 1700013N18Rik,inactive: 1.91
26,GGAAAAUUCCUGUGAAUGATT against Bcor,inactive: -0.187

row,Sequence,z-score
1,CCGUGAGAUAACUAUAGCUTT against Tsg-5,inactive: 0.648
2,GGUGCUUAAUUCCUGUCCCTT against Ggn,inactive: -0.173
3,CCACCUAUCAGGAUUCAACTT against 0610009D07Rik,inactive: -1.64
4,GGAUGAGCUAGAGAUGACCTT against Kcnip1,inactive: -1.07
5,CCUCAGAACAAAUGAAAAUTT against Nlk,inactive: -0.338
6,GCAGGUGAAAGUGCAGAUCTT against Timm9,inactive: -1.57
7,CGAUCAAAAGGAUUUCAUCTT against Gjb4,inactive: 0.52
8,GGAGUGUAUAUUAUUGGUGTT against Olfr44,inactive: -0.237
9,GCACAUACAGAGCUCGUCUTT against Zfp535,inactive: -1.92
10,GGACAUCCAACCGUACAUGTT against Ccnd2,inactive: 0.925
11,GGGUGAUAAAUGUUUGAAUTT against V1ra2,inactive: -0.756
12,GGGUUUCUGUUUGAUUCCATT against Gria1,active: 1.91
13,CCUGAGCUUUGAUGUCGAUTT against Arg1,inactive: -1.77
14,CCUUGCACGACAUUUUACUTT against 5133401N09Rik,inactive: 0.637
15,GGACUUCAUGGGUCGCUUUTT against Gstm2,inactive: 0.177
16,GGCCUUAGCAAAUAUGGCUTT against Nutf2,inactive: 0.534
17,GGCUCUCUGGCUUACUAAGTT against Mrpl37,inactive: -0.936
18,GGUUCAUUCGAUCUCAGACTT against Tmem10,inactive: 1.32
19,GGUAGAGGUUAAGACGAUCTT against C330023D02Rik,inactive: -0.997
20,GCAGAAGUUAAGAUGCAUATT against Usf1,inactive: -0.438
21,GCAAUGUGACCAAGACAAUTT against 2610524G07Rik,inactive: -0.299
22,GCAAUGGCAACAGAGAGGATT against Dos,inactive: -0.145
23,GGAACGAGACUCAUCUUCUTT against Cic,active: 1.35
24,GGAAGAUGGAGAUCAGACGTT against Foxd4,inactive: -0.943
25,CGGAUCCUACGGAAUUACGTT against Fpgs,inactive: -1.47
26,GGCAUAGCCAUGAUGACAUTT against St5,inactive: 0.702

row,Sequence,z-score
1,GGGUUAUGGACACUACCCATT against Tnk1,inactive: 0.295
2,CCUAUUUGUAGGUGAUGUUTT against B3gnt7,inactive: -0.321
3,GCUAUCAAAGCUAAUACAUTT against Mrps9,inactive: -0.437
4,GGAAAGACAGGUAAACUCATT against Slc6a17,inactive: -1.25
5,GGCUCCAACAUAGAAAUGATT against Tpbpa,inactive: -1.14
6,CCAUCUAUGAUCCCAGAGCTT against Fbxw9,inactive: 0.241
7,GGCUAUUGAUUCCUAUUAGTT against C030002J06Rik,inactive: -1.56
8,CCGGAGCACCAUUAAGGUUTT against Nudt11,inactive: -1.14
9,GGGUCGAUCAUUGUGGUCATT against Olfr508,inactive: 0.0811
10,CCUUUUGUUUUACCUACUCTT against Tbx22,inactive: 0.661
11,GGAGAUUAAGAUUCAGCAGTT against Nmt2,inactive: 1.32
12,GCUUUAAGGCCGUCAUCCATT against Gale,inactive: -0.498
13,GGUCUGGAUCAGAAGUCAATT against Hrh1,inactive: 2.27
14,GGCGCAUGUGCGGAAGAAATT against Tbc1d17,inactive: -0.633
15,GCAAGGACCAAAUUACAUATT against Itgb3bp,inactive: -0.404
16,CCAACGGCAAUGGUUGCAUTT against Thoc3,inactive: -0.513
17,GGUCCAUUGAGCACUUUGCTT against B930041G04,inactive: 0.281
18,CCAGUCAUUGUGCUUGUUATT against Sox12,inactive: 0.751
19,GCGAAUUCGAGAAAACCUGTT against Celsr1,inactive: 0.494
20,GGAUAGCCUGGAACUUAUCTT against Tnni3k,inactive: 0.838
21,GGAGAACACGCUCAGAAGATT against 1110058A15Rik,inactive: 0.305
22,GGCUCUUCACUCAUGUAUGTT against Olfr703,inactive: 0.615
23,CGUUUGCUCUAAAGCCAGGTT against BC004728,inactive: 1.02
24,GCCGGAGACUAUCUGGUAGTT against Hps3,inactive: -0.447
25,GGACAUGUUUCCUGACCUGTT against B230208J24Rik,inactive: 0.734
26,GGACCUGUCCCGUCAAAGATT against 1500015O10Rik,inactive: -0.00945

# Pulled one by one from above, 2 records:
row,Sequence,z-score
10,CCUUUUGUUUUACCUACUCTT against Tbx22,inactive: 0.661
26,GGACCUGUCCCGUCAAAGATT against 1500015O10Rik,inactive: -0.00945

# Carrying on.

row,Sequence,z-score
1,CCGUUAAUGCCAUGAUCAATT against Olfr1364,inactive: -0.251
2,CGGCAUUGUCACAGUUACGTT against Zfp496,inactive: -0.4
3,GCAGGUAAAAUACAGGAGCTT against Gdi3,inactive: 1.05
4,GGUUGACGACUUUGUGUGUTT against Olfr90,inactive: 0.92
5,GCUCUCUAUAGGAUAAUGGTT against LOC328644,inactive: 2.39
6,GGAUCUUGAAGAUAAGAGCTT against 1810009A15Rik,inactive: 0.832
7,GAGUGUGGAAGGAAGAGGUTT against D730049H07Rik,inactive: 0.621
8,GGUGUCAAGAAGAAUGUCCTT against 2410080H04Rik,inactive: -0.957
9,CCCUAGAGAUGGUGGGUCUTT against Olfr934,inactive: -0.47
10,GGGUCUUUCUAAAAAGUUCTT against D930046M03,inactive: 0.527
11,CGUAAACUUAGGAAUUUUCTT against E230015L20Rik,inactive: 1.58
12,GGAGCUGAUAAGAAAACUATT against Gbp2,inactive: -0.474
13,GGUGAUUCAGAUAAAAGAGTT against Mbtps1,inactive: 0.064
14,GGCUCAAAGACUGAAUCCCTT against Recql4,inactive: 1.49
15,CCCACAAUCUUUUUGUAAATT against Sost,inactive: 1.15
16,GGAAGUGGCCUUAAAGUAUTT against 4933429F08Rik,inactive: -0.872
17,GCACCAUUCUAGGAGUCAUTT against 1300002A08Rik,inactive: -0.0419
18,GGCCUUAGAUGGGAAAUUGTT against Pttg1,inactive: 0.0255
19,GGAUGUAAAAUCCAUUGUUTT against 1700030B17Rik,inactive: -2.51
20,GCUGUUUCAGGUAUCUGUCTT against Tcam1,inactive: -1.25
21,GGGACUUCAGACAGUUAUCTT against Es2el,inactive: 1.6
22,GGUAUUAGCGGAUUGUUACTT against Spg7,inactive: 1.09
23,GCAAUGUUAUUUUCACCAGTT against Slc3a1,inactive: 2.14
24,GGUGCCAACUUUAAAAGCUTT against Zfp161,inactive: -0.136
25,CGGGUCUAUCGAUUUCUUCTT against Fcna,inactive: 0.611
26,GCUAUUGGCGAGAAUUAAATT against Smarca1,inactive: 1.58

# 2 successive entries from above, for reference:
row,Sequence,z-score
18,GGCCUUAGAUGGGAAAUUGTT against Pttg1,inactive: 0.0255
19,GGAUGUAAAAUCCAUUGUUTT against 1700030B17Rik,inactive: -2.51
